Here are results for one molecule from patent US20230128075A1.

This assay addresses Human ⇒ mouse HSP70 mutant/GFP (human). The experiment in a line: Western blot of 293 cell material with 77A.

Results are given in words; binding and its absence hold for the method and conditions named.

B1: 77A antibody (clone 77A, murine anti-HSP70 mAb) (antibody, V domains shown)
VH: QIQLVQSGPELKKPGETVKISCKASGYTFTNYGMNWVKQAPGKGLKWMGWINTYTGEPTYADDFKGRFAFSLETSATTAYLQINNLKNEDTATYFCARYDHAMDYWGQGTSVTVSS
VL: DIVMSQSPSSLAVSAGEKVTMSCKSSQSLLNSGTRKNYLAWYQQKPGQSPKLLIYWTSTRESGVPDRFTGSGSGTDFTLTINSVQAEDLAVYYCKQSYTLYTFGGGTKLEIK
On to B1, for which the binding result is “no binding”.
